Source: the supplement of paper PMC6411743
± gives the standard deviation of the averaged measurements. This is a selection; strong and weak results do not stand in their true shares. Most entries show no effect beyond the scatter of the controls.

The chains behind the UniProt entries cited, without tags or fusion partners. Where a name states a change or a piece, a line headed by the entry shows the natural chain unless it says otherwise.
UniProt P35227: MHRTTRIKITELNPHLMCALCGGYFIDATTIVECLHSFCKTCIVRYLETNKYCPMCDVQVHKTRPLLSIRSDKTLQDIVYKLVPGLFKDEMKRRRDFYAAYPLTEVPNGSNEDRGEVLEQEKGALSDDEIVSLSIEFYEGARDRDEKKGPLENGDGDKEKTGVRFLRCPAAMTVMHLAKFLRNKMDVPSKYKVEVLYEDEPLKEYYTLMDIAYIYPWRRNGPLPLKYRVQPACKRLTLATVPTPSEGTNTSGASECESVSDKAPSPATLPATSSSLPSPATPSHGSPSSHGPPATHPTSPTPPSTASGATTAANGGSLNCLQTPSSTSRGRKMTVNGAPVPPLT
UniProt Q9Y3E1: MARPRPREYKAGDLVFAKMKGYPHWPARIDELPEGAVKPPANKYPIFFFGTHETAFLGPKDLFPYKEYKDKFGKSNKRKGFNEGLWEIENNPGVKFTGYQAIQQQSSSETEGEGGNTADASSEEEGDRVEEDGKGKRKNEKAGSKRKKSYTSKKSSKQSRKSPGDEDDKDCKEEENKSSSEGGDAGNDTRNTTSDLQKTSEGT
UniProt Q00341: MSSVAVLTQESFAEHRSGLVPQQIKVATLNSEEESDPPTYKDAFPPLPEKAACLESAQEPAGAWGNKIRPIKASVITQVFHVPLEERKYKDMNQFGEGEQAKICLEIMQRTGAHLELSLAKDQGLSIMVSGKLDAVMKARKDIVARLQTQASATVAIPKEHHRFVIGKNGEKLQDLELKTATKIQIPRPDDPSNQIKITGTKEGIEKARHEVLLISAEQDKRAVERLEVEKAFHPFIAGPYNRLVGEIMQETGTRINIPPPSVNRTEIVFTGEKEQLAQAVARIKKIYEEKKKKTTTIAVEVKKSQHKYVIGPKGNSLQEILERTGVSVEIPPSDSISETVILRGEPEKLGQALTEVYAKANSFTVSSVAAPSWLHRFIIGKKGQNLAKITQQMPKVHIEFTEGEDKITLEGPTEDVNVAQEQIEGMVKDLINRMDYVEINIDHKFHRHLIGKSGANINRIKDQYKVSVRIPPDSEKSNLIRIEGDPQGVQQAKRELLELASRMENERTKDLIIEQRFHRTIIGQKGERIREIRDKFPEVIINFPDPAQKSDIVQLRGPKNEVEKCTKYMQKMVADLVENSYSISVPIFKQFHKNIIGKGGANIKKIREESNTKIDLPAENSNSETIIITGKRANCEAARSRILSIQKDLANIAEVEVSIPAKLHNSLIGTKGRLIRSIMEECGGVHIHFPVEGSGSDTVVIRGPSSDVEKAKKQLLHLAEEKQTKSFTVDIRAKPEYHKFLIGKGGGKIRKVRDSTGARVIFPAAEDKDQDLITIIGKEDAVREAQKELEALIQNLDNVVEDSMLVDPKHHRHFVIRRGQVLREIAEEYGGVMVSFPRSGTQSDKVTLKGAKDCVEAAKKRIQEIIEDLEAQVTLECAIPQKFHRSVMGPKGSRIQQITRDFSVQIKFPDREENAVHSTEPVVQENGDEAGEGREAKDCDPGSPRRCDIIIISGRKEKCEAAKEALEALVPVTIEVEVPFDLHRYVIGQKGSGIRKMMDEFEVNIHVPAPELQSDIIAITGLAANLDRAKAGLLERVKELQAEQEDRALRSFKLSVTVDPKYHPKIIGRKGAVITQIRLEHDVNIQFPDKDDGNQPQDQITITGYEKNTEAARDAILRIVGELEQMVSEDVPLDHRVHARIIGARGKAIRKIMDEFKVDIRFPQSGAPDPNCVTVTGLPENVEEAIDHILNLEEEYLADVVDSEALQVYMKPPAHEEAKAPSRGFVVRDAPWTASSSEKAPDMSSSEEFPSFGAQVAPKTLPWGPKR
UniProt Q9BXJ8: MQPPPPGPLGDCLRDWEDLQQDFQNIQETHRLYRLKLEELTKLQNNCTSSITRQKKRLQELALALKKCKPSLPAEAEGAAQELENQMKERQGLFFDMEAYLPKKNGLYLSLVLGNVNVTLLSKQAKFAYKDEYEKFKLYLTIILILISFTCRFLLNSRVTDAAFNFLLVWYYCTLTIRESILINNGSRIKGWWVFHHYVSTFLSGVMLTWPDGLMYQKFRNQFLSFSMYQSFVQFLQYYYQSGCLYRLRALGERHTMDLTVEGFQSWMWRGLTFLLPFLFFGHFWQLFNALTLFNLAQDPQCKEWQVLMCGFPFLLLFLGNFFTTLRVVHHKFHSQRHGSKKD
UniProt Q9BSV6: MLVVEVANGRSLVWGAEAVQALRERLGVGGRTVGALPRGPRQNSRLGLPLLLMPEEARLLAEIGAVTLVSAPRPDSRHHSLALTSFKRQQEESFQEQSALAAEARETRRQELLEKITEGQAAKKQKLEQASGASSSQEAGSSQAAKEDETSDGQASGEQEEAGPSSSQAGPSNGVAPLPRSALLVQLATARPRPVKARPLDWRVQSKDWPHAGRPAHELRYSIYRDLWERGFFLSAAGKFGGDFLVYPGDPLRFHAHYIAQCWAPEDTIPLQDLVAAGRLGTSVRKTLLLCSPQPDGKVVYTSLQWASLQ
UniProt P0C1Z6, whole entry: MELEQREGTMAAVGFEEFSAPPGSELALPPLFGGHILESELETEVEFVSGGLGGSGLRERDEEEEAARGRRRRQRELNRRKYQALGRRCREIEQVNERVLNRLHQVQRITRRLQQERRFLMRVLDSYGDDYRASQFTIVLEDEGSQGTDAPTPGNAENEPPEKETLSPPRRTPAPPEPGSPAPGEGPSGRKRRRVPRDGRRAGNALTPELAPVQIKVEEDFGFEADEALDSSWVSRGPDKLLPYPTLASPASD
UniProt O75503: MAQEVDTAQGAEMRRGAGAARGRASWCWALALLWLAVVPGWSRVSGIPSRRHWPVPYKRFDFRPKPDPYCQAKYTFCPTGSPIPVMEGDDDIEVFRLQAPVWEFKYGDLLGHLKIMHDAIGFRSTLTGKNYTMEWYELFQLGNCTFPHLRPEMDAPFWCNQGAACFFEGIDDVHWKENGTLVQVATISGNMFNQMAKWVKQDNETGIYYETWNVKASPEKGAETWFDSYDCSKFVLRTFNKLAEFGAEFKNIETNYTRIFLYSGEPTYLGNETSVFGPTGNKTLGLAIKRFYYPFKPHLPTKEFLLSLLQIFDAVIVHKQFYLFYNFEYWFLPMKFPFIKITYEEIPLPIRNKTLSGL
UniProt P25787: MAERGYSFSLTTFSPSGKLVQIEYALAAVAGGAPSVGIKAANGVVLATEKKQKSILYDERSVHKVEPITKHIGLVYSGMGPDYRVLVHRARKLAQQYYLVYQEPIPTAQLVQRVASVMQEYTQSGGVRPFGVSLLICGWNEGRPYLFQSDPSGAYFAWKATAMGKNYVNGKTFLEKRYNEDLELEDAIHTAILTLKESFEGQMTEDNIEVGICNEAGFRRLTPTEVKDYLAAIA
UniProt Q14241: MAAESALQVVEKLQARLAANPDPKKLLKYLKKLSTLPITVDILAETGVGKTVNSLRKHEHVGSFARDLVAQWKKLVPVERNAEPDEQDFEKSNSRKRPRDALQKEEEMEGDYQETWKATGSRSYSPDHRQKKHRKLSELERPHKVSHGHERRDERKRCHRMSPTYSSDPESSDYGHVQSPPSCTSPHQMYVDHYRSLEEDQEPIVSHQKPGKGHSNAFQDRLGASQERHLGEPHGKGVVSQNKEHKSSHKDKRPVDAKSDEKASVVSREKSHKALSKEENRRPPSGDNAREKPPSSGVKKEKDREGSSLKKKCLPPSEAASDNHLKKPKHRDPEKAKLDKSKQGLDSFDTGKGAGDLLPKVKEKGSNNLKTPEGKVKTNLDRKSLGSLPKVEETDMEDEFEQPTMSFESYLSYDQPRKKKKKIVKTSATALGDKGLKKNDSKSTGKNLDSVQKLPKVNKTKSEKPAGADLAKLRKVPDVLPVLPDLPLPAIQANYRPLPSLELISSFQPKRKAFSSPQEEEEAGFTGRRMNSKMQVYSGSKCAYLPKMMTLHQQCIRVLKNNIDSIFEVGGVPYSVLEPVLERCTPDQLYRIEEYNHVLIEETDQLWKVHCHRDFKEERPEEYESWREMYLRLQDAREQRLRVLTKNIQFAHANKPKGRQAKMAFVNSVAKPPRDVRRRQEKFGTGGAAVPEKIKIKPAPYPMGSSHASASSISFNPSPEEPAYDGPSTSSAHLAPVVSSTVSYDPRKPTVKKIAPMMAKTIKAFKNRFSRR
UniProt Q16670: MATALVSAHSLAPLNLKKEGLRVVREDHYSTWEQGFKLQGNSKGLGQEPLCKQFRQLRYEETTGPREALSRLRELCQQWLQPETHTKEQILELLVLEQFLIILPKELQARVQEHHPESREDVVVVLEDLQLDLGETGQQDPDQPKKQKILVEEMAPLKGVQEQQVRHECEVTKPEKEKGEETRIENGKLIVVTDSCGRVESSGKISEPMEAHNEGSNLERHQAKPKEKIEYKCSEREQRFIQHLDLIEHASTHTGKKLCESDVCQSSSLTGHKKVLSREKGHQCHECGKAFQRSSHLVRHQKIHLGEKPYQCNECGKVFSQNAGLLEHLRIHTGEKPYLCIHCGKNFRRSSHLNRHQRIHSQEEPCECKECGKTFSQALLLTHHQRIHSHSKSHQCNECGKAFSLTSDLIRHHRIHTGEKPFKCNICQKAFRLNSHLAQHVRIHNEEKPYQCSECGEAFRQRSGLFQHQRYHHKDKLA
UniProt Q9UMR5: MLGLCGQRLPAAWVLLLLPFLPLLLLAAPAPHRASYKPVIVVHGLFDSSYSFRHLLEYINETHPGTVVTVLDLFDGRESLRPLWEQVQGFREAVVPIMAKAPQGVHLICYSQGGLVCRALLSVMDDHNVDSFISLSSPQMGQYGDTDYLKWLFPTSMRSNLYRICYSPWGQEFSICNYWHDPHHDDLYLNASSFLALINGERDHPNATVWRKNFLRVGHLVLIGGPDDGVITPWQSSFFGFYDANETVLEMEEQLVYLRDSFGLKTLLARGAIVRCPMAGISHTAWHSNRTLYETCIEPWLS
UniProt P46379: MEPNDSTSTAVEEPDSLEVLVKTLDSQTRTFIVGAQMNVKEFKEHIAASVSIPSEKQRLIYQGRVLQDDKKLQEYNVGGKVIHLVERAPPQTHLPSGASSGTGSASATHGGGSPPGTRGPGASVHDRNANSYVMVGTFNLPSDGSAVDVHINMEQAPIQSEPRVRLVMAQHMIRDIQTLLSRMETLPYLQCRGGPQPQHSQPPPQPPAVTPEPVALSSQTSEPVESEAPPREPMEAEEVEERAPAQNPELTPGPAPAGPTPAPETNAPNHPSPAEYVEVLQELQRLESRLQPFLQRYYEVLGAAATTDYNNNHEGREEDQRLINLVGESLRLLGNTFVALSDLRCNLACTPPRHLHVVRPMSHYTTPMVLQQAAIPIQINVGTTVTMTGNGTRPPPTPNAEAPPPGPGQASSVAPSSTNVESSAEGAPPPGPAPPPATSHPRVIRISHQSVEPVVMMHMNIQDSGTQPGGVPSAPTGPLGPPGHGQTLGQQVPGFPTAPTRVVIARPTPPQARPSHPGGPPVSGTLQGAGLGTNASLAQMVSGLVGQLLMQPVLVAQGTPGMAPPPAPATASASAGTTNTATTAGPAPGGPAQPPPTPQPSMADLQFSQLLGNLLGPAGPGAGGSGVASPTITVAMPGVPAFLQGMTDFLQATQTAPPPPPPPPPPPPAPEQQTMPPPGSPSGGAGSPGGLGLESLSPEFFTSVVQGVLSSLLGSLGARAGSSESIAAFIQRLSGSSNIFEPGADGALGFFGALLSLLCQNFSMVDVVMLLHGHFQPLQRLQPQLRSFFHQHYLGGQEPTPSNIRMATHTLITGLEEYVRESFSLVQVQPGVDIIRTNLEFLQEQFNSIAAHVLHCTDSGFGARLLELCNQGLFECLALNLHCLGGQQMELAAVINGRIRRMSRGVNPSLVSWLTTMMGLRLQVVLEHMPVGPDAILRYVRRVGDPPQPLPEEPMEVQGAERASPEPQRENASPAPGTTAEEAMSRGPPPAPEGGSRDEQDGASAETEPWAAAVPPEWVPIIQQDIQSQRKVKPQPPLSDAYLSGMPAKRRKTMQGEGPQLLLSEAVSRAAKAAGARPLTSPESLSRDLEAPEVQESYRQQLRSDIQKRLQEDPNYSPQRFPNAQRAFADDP

Experiments:
Assay in all cases: NP40-soluble protein abundance relative to vehicle (solubility fold change) (ratio); higher = more soluble protein in presence of ATP
A0A024R1V6|P35227 = A0A024R1V6|P35227 (UniProt P35227)
Summary of the method: (§1)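 Across three independent experiments, values are fold changes against the detergent-processed vehicle for each replicate, based on vsn-normalised intensities. The samples were Jurkat crude lysate treated with eight concentrations (0.1 to 10 mM) for 10 min at room temperature and then 3 min at 37 °C. Lysate was solubilised with 0.8% NP40 and benzonase, ultracentrifuged, and the supernatant analysed by TMT-labelled LC-MS/MS.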

A0A024R216|Q9Y3E1 = A0A024R216|Q9Y3E1 (UniProt Q9Y3E1)
Summary of the method: as §1

A0A024R4E5 = A0A024R4E5 (UniProt Q00341)
Summary of the method: as §1

[1] = target: A0A024R4K9|A0A087WZA9|A0A087X266|Q9BXJ8 and related entries (UniProt Q9BXJ8)
Summary of the method: as §1

A0A024R4M0|P46781 = A0A024R4M0|P46781 (UniProt P46781)
Summary of the method: as §1

[2] = target: A0A024R4N9|A0A0G2JNK5|A9C4B9 and related entries (UniProt Q9BSV6)
Summary of the method: as §1

[3] = target: A0A024R4Q5|G5E9B5 and related entries (UniProt P0C1Z6)
Summary of the method: as §1

A0A024R644|O75503 = A0A024R644|O75503 (UniProt O75503)
Summary of the method: as §1

A0A024RA52|P25787 = A0A024RA52|P25787 (UniProt P25787)
Summary of the method: as §1

A0A024RAC6 = A0A024RAC6 (UniProt Q14241)
Summary of the method: as §1

[4] = target: A0A024RCN4|A0A087X2F1|Q16670 and related entries (UniProt Q16670)
Summary of the method: as §1

[5] = target: A0A024RCQ8|A0A0G2JH76|A0A140T8X7|Q9UMR5 and related entries (UniProt Q9UMR5)
Summary of the method: as §1

[6] = target: A0A024RCR6|A0A0G2JK23|P46379 and related entries (UniProt P46379)
Summary of the method: as §1

A0A067XG54 = target: T1, A0A067XG54 (UniProt Q8NB49)
T1 sequence (whole entry): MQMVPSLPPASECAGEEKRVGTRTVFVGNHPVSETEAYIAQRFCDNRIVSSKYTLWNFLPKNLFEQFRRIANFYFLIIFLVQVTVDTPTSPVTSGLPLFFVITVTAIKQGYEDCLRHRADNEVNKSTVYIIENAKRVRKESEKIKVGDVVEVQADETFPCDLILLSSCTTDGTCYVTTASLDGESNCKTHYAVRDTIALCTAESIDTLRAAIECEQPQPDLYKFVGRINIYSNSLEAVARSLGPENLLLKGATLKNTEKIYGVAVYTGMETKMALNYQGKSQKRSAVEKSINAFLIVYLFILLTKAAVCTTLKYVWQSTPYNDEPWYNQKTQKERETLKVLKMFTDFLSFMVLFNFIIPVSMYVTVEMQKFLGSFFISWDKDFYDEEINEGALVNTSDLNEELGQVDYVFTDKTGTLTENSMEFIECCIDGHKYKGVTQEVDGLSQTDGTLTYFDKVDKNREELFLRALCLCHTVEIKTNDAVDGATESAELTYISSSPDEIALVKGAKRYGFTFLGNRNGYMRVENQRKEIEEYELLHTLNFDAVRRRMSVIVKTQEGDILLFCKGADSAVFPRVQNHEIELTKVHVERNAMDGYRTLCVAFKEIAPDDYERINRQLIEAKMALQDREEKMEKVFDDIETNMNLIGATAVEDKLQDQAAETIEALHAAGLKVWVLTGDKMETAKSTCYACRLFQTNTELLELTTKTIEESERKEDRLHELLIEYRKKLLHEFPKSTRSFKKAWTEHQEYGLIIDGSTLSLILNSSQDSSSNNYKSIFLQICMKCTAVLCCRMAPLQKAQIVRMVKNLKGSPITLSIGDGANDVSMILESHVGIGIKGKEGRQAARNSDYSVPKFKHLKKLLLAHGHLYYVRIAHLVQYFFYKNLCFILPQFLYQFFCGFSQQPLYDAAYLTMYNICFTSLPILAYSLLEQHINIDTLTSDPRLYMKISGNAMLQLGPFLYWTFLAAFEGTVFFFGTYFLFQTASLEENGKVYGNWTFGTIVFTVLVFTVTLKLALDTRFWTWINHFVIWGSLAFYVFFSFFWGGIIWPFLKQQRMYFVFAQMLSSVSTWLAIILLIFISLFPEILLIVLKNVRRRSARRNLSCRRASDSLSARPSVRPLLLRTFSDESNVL
Summary of the method: as §1

## Nc1ncnc2c1ncn2[C@@H]1O[C@H](COP(=O)(O)OP(=O)(O)OP(=O)(O)O)[C@@H](O)[C@H]1O [adenosine triphosphate]
A0A024R1V6|P35227; concentration: 0.1mM
  NP40-soluble protein abundance: 1.05 ± 0.044
A0A024R1V6|P35227; concentration: 0.5mM
  NP40-soluble protein abundance: 1.07 ± 0.075
A0A024R216|Q9Y3E1; concentration: 0.1mM
  NP40-soluble protein abundance: 0.973 ± 0.014
A0A024R216|Q9Y3E1; concentration: 0.5mM
  NP40-soluble protein abundance: 0.998 ± 0.039
A0A024R4E5; concentration: 0.1mM
  NP40-soluble protein abundance: 1.01 ± 0.032
A0A024R4E5; concentration: 0.5mM
  NP40-soluble protein abundance: 0.949 ± 0.05
[1]; concentration: 0.1mM
  NP40-soluble protein abundance: 1.07 ± 0.045
[1]; concentration: 0.5mM
  NP40-soluble protein abundance: 1.03 ± 0.096
A0A024R4M0|P46781; concentration: 0.1mM
  NP40-soluble protein abundance: 0.914 ± 0.029
A0A024R4M0|P46781; concentration: 0.5mM
  NP40-soluble protein abundance: 0.848 ± 0.13
[2]; concentration: 0.1mM
  NP40-soluble protein abundance: 1.01 ± 0.059
[2]; concentration: 0.5mM
  NP40-soluble protein abundance: 1.09 ± 0.15
[3]; concentration: 0.1mM
  NP40-soluble protein abundance: 1.11 ± 0.083
[3]; concentration: 0.5mM
  NP40-soluble protein abundance: 1.05 ± 0.029
A0A024R644|O75503; concentration: 0.1mM
  NP40-soluble protein abundance: 0.953 ± 0.023
A0A024R644|O75503; concentration: 0.5mM
  NP40-soluble protein abundance: 0.954 ± 0.036
A0A024RA52|P25787; concentration: 0.1mM
  NP40-soluble protein abundance: 0.952 ± 0.055
A0A024RA52|P25787; concentration: 0.5mM
  NP40-soluble protein abundance: 0.95 ± 0.061
A0A024RAC6; concentration: 0.1mM
  NP40-soluble protein abundance: 0.967 ± 0.044
A0A024RAC6; concentration: 0.5mM
  NP40-soluble protein abundance: 0.963 ± 0.019
[4]; concentration: 0.1mM
  NP40-soluble protein abundance: 1.05 ± 0.013
[4]; concentration: 0.5mM
  NP40-soluble protein abundance: 1.05 ± 0.055
[5]; concentration: 0.1mM
  NP40-soluble protein abundance: 0.936 ± 0.01
[5]; concentration: 0.5mM
  NP40-soluble protein abundance: 0.951 ± 0.041
[6]; concentration: 0.1mM
  NP40-soluble protein abundance: 0.98 ± 0.047
[6]; concentration: 0.5mM
  NP40-soluble protein abundance: 0.955 ± 0.064
A0A067XG54; concentration: 0.1mM
  NP40-soluble protein abundance: 1.05 ± 0.076
A0A067XG54; concentration: 0.5mM
  NP40-soluble protein abundance: 1.06 ± 0.056
